The list does not hold the whole screen: it is rich in T/C values a quarter to a half above the control, in often repeated tests (any T/C) and in doses without a T/C. Further doses and runs are listed elsewhere. T/C: endpoint of the treated group in % of that of the vehicle group. Some doses have a count of surviving animals in place of a T/C: the source files T/C as zero there, which appears to mark a toxic dose or a test without result, not a measured value. Some survivor counts are full or nearly so, which does not show that the dose was tolerated: the source hardly ever lists a survival T/C far under the control, and the zero likely stands for such cases as well. Counts of survivors are from the toxicity check (mostly the fifth day) where no day follows; animals may have died later. Schedules are NCI's codes, taken here to give the interval after Q, in days (D) or hours (H), and the number of doses after X. Some entries hold several experiments; the values are given in rising order. Some structures stand for samples that the source files as different forms (salt, stereo form or complex); doses refer to the form tested. Where survival is the endpoint, the PubChem record calls one and a half times the control and up active, and a quarter to a half above the control has no call in these data; cut-offs in other NCI protocols can differ. Some T/C values carry the count of animals alive at the toxicity check (mostly the fifth day); where none is given, no animal had died by that day.
System: P388 leukemia ip, CD2F1 mice, survival T/C
Experiment: NCI In Vivo Anticancer Drug Screen. Data for tumor model P388 Leukemia (intraperitoneal) in CD2F1 (CDF1) mice
Details: T/C endpoint: median survival time, higher T/C = longer survival
[1] = dose: 200.0 mg/kg/injection, schedule: Q01DX005 (ip), vehicle: saline with Tween-80
[2] = dose: 400.0 mg/kg/injection, schedule: Q01DX009 (ip), vehicle: saline
[3] = dose: 240.0 mg/kg/injection, schedule: Q01DX005 (ip), vehicle: saline
[4] = dose: 100.0 mg/kg/injection, schedule: Q01DX009 (ip), vehicle: saline
[5] = dose: 200.0 mg/kg/injection, schedule: Q01DX009 (ip), vehicle: saline
[6] = dose: 200.0 mg/kg/injection, schedule: Q01DX009 (ip), vehicle: saline with Tween-80
[7] = dose: 400.0 mg/kg/injection, schedule: Q01DX009 (ip), vehicle: saline with Tween-80

With C/C=C/C(C)C1OC1(C)C(O)C1COC(=O)C(O)C(OC)C(C)C(=O)C(C)C(O)/C(C)=C/C(C)C(=O)CC(O)C(C)C1=O (configuration not stated) the survivor count (dose: 12.5 micrograms/kg/injection, schedule: Q01DX005 (ip), vehicle: saline) was 0 of 6 and 1 of 6, the survivor count (dose: 25.0 micrograms/kg/injection, schedule: Q01DX005 (ip), vehicle: saline) was 0 of 6 and the survivor count (dose: 50.0 micrograms/kg/injection, schedule: Q01DX005 (ip), vehicle: saline) was 0 of 6.
With C1=NCCCN2CCCCC12 (configuration not stated) the survivor count (dose: 80.0 mg/kg/injection, schedule: Q01DX009 (ip), vehicle: saline) was 2 of 6.
In the case of NC(=S)c1ccc(C=Nc2ccc(Cl)cc2)cc1, the survivor count (dose: 200.0 mg/kg/injection, schedule: Q01DX001 (ip), vehicle: other) is reported as 3 of 6.
In the case of CC1C=CCC(C)(C)C1 (configuration not stated), the survivor count (dose: 400.0 mg/kg/injection, schedule: Q01DX009 (ip), vehicle: Klucel (hydroxypropylcellulose) (HPC)) is reported as 6 of 6.
In the case of O=[N+]([O-])c1ccc(O)c(/C=N\NS(=O)(=O)c2ccc(Cl)cc2)c1, the survivor count [1] is reported as 0 of 6.
In the case of CC1=NN(c2cccc(S(=O)(=O)O)c2)C(=O)C1, the survivor count [2] is reported as 6 of 6.
For CCCCCCCCCCCC1=c2o[nH]c2=C(c2ccccn2)C(=O)C1=O, the survivor count [1] was 6 of 6.
In the case of CCn1c2nc(=O)n(C)c(=O)c-2[n+]([O-])c2cc(Br)ccc21, the survivor count (dose: 50.0 mg/kg/injection, schedule: Q04DX002 (ip), vehicle: saline with Tween-80) is reported as 2 of 6, the survivor count (dose: 100.0 mg/kg/injection, schedule: Q04DX002 (ip), vehicle: saline with Tween-80) is reported as 0 of 6 and 1 of 6 and the survivor count (dose: 200.0 mg/kg/injection, schedule: Q04DX002 (ip), vehicle: saline with Tween-80) is reported as 0 of 6. The survivor count (dose: 400.0 mg/kg/injection, schedule: Q04DX002 (ip), vehicle: saline with Tween-80) was 0 of 6.
For C#CC1OCCCO1, the survivor count [3] was 0 of 6.
For CCCOC1CC(C)(O)C(C(=O)OC)c2cc3c(c(O)c21)C(=O)c1c(O)cc2c(c1C3=O)OC1OC2(C)C(O)C(N(C)C)C1O (configuration not stated), the T/C (dose: 2.5 mg/kg/injection, schedule: Q01DX009 (ip), vehicle: other) was 133 % of control, the T/C (dose: 5.0 mg/kg/injection, schedule: Q01DX009 (ip), vehicle: other) was 130 % of control and the T/C (dose: 10.0 mg/kg/injection, schedule: Q01DX009 (ip), vehicle: other) was 134 % of control. The survivor count (dose: 20.0 mg/kg/injection, schedule: Q01DX009 (ip), vehicle: other) was 5 of 6 and the survivor count (dose: 40.0 mg/kg/injection, schedule: Q01DX009 (ip), vehicle: other) was 0 of 6.
In the case of CC(=O)O.CC(=O)O.CC(=O)O.CC(=O)O.O=C(O)C1C[N-]CC(C(=O)O)C1.O=C(O)C1C[N-]CC(C(=O)O)C1.[Cu+].[Cu+] (configuration not stated), the survivor count (dose: 25.0 mg/kg/injection, schedule: Q01DX005 (ip), vehicle: suspension in saline) is reported as 0 of 6, the survivor count (dose: 50.0 mg/kg/injection, schedule: Q01DX005 (ip), vehicle: suspension in saline) is reported as 0 of 6 and the survivor count (dose: 100.0 mg/kg/injection, schedule: Q01DX005 (ip), vehicle: suspension in saline) is reported as 0 of 6. The survivor count (dose: 200.0 mg/kg/injection, schedule: Q01DX005 (ip), vehicle: suspension in saline) was 0 of 6.
For CCC(=O)Oc1ccc(/C=N/NC(N)=S)nc1, the T/C (dose: 12.5 mg/kg/injection, schedule: Q01DX009 (ip), vehicle: saline) was 132 % of control, the T/C (dose: 25.0 mg/kg/injection, schedule: Q01DX009 (ip), vehicle: saline) was 148 % of control and the T/C [4] was 141, 150, 196, 197 % of control. For the same compound, the survivor count [5] was 6 of 6 and the survivor count [2] was 5 of 6 and 6 of 6.
CN(Cc1cnc2nc(N[Si](C)(C)C)nc(N[Si](C)(C)C)c2n1)c1ccc(C(=O)NC(CCC(=O)O[Si](C)(C)C)C(=O)O[Si](C)(C)C)cc1 (configuration not stated) was tested, and the T/C (dose: 5.0 mg/kg/injection, schedule: Q01DX009 (ip), vehicle: saline) was 134 % of control, the survivor count (dose: 10.0 mg/kg/injection, schedule: Q01DX009 (ip), vehicle: saline) was 3 of 6 and the survivor count (dose: 20.0 mg/kg/injection, schedule: Q01DX009 (ip), vehicle: saline) was 3 of 6. The survivor count (dose: 120.0 mg/kg/injection, schedule: Q04DX003 (ip), vehicle: saline) was 5 of 6.
In the case of CCOC(=O)Oc1ccc(/C=N/NC(N)=S)nc1, the survivor count [6] is reported as 6 of 6.
For N#CC(OC(=O)c1ccccc1)C(OC(=O)c1ccccc1)C(COC(=O)c1ccccc1)OC(=O)c1ccccc1 (configuration not stated), the survivor count [1] was 5 of 5.
With Cc1cc(=O)[nH]c2c1C(=O)c1c(C)cc(=O)n(C)c1C2=O the survivor count (dose: 0.12 mg/kg/injection, schedule: Q01DX009 (ip), vehicle: DMSO) was 6 of 6, the survivor count (dose: 0.25 mg/kg/injection, schedule: Q01DX009 (ip), vehicle: DMSO) was 6 of 6 and the survivor count (dose: 0.5 mg/kg/injection, schedule: Q01DX009 (ip), vehicle: DMSO) was 6 of 6. For the same compound, the survivor count (dose: 1.0 mg/kg/injection, schedule: Q01DX009 (ip), vehicle: DMSO) was 6 of 6, the survivor count (dose: 2.0 mg/kg/injection, schedule: Q01DX009 (ip), vehicle: DMSO) was 6 of 6 and the survivor count (dose: 4.0 mg/kg/injection, schedule: Q01DX009 (ip), vehicle: DMSO) was 4 of 6. For the same compound, the survivor count (dose: 8.0 mg/kg/injection, schedule: Q01DX009 (ip), vehicle: DMSO) was 2 of 6.
Cc1cccc[n+]1CC(=O)C[n+]1ccccc1C was tested, and the survivor count (dose: 200.0 mg/kg/injection, schedule: Q01DX005 (ip), vehicle: saline) was 1 of 5.
With CC(=O)OC1CC2CCCCC2CC1[N+](C)(C)C (configuration not stated) the survivor count (dose: 100.0 mg/kg/injection, schedule: Q01DX009 (ip), vehicle: saline with Tween-80) was 0 of 6, the survivor count [4] was 1 of 6 and the survivor count [6] was 0 of 6. For the same compound, the survivor count [5] was 0 of 6.
With COc1cccc(C(=O)N/N=C(\C#N)c2cccc(OC)c2)c1 the survivor count [1] was 6 of 6.
With CCC(=O)c1c(O)c2ccccc2oc1=O the survivor count (dose: 120.0 mg/kg/injection, schedule: Q01DX005 (ip), vehicle: saline with Tween-80) was 2 of 6 and the survivor count (dose: 240.0 mg/kg/injection, schedule: Q01DX005 (ip), vehicle: saline with Tween-80) was 0 of 6.
CCOC(OCC)c1c(Cl)cccc1Cl was tested, and the survivor count (dose: 264.0 mg/kg/injection, schedule: Q01DX009 (ip), vehicle: saline with Tween-80) was 3 of 6, the T/C [7] was 127 % of control [5 of 6 alive] and the survivor count [7] was 2 of 6. For the same compound, the survivor count (dose: 600.0 mg/kg/injection, schedule: Q01DX009 (ip), vehicle: saline with Tween-80) was 1 of 6.
CCOc1cccc2nncn12 was tested, and the survivor count (dose: 400.0 mg/kg/injection, schedule: Q01DX001 (ip), vehicle: saline) was 0 of 6.
With C[C@@H]1CC[C@]2(C)CC[C@]3(C)C(=CC[C@@H]4[C@@]5(C)CC[C@@H](OC(=O)c6ccc(O)cc6)C(C)(C)[C@@H]5C[C@H](O)[C@]43C)[C@@H]2[C@H]1C(=O)O the T/C (dose: 0.02 mg/kg/injection, schedule: Q01DX009 (ip), vehicle: saline with Tween-80) was 130 % of control, the T/C (dose: 0.05 mg/kg/injection, schedule: Q01DX009 (ip), vehicle: saline with Tween-80) was 130 % of control and the T/C (dose: 0.1 mg/kg/injection, schedule: Q01DX009 (ip), vehicle: saline with Tween-80) was 144 % of control. For the same compound, the survivor count (dose: 0.5 mg/kg/injection, schedule: Q01DX009 (ip), vehicle: Klucel (hydroxypropylcellulose) (HPC)) was 6 of 6, the survivor count (dose: 1.0 mg/kg/injection, schedule: Q01DX009 (ip), vehicle: Klucel (hydroxypropylcellulose) (HPC)) was 5 of 6 and the survivor count (dose: 2.0 mg/kg/injection, schedule: Q01DX009 (ip), vehicle: Klucel (hydroxypropylcellulose) (HPC)) was 2 of 6. For the same compound, the survivor count (dose: 4.0 mg/kg/injection, schedule: Q01DX009 (ip), vehicle: Klucel (hydroxypropylcellulose) (HPC)) was 0 of 6, the T/C (dose: 100.0 micrograms/kg/injection, schedule: Q01DX009 (ip), vehicle: saline with Tween-80) was 127 % of control and the T/C (dose: 200.0 micrograms/kg/injection, schedule: Q01DX009 (ip), vehicle: saline with Tween-80) was 136 % of control.
In the case of CSc1ccc(N2C(N)=NC(N)=NC2(C)C)cc1, the survivor count (dose: 50.0 mg/kg/injection, schedule: Q01DX005 (ip), vehicle: saline with Tween-80) is reported as 3 of 5, the survivor count (dose: 100.0 mg/kg/injection, schedule: Q01DX005 (ip), vehicle: saline with Tween-80) is reported as 0 of 5 and the survivor count [1] is reported as 0 of 5.
In the case of CC(C)CCN=C(N)N=C(N)N, the survivor count [3] is reported as 0 of 6.

— PubChem BioAssay AID330 (DTP/NCI, 2004)
